Test results taken from patent US6645934B1, “Peptide with radio protective effect” (Eberhard-Karls-Universität Tübingen, priority 1997, dated 2003).
Some of these results come from one statement about several compounds together. Some ranges recur; such a range may be that of the whole group of compounds.

B1: Bowman-Birk Protease Inhibitor (protein)
chain: DDESSKPCCDQCACTKSNPPQCRCSDMRLNSCHSACKSCICALSYPAQCFCVDITDFCYEPCKPSEDDKEN
notes: complete BBI (from Sigma Biochemicals)
B2: BBI-R: complete BBI pretreated with the reducing agent dithiothreitol (DTT), so that all the disulfide bonds were cleaved (protein)
chain: B1 chain
modifications: cyclised or stapled
notes: complete BBI pretreated with the reducing agent dithiothreitol (DTT), so that all the disulfide bonds were cleaved

Test system: Normal human fibroblasts
Experiment: Clonogenic assay with normal human fibroblasts under ionizing radiation
Type: cell-based
Conditions: single dose of 2 Gy; 16-hour pretreatment; 10 μM; FIG. 1
Protocol: The examination of the radioprotective effect of BBI and of modified forms of BBI was performed as a so-called clonogenic assay, which is described, for example, in K. Dittmann et al., Radiotherapy and Oncology 34 (1995), pages 137-143, and is explained briefly below.
Normal human fibroblasts were cultivated in Dulbecco's Modified Eagles Medium (DMEM) with 10% fetal calf serum under standard conditions. At each cell passage the number of cells was counted, and the cells were seed with a density of 2×10^4/cm^2 when subcultures were set up.
For the clonogenic assay, secondary fibroblasts were trypsinated with 0.05% trypsin and 0.1 EDTA, and seed at a cell density of 50 cells per cm^2 into six-well tissue culture dishes. The cells were cultivated with 2 ml DMEM with 20% fetal calf serum per well. […]
The cells were then cultivated for a further eight days in BBI-free culture medium in order to allow colonies to form. The cells were then fixed, stained, and counted; in the Figures, “K” indicates the absolute number of clones counted.
A clone is a colony or a cell cluster resulting from the division of one cell during the eight-day cultivation period. […] If many cells die when the cells are irradiated, then only a few clones will form after eight days; if many cells survive, then many clones may be counted after eight days of cultivation. […]

| Molecule | increase in the clonogenic survival of the irradiated human skin fibroblasts |
| --- | --- |
| B1 | 20-30% |
| B2 | 20-30% |
